Article PMC2572840
No constants are given. Whether binding was seen depends on the method and setting. A result given as binding can be weak or reduced; the word gives no strength.

Protein sequences, listed by entry. Tags and fused reporters are not part of them. Lines headed by an entry give the natural chain unless they say otherwise; changes in a name come on top.
UniProt A1X283: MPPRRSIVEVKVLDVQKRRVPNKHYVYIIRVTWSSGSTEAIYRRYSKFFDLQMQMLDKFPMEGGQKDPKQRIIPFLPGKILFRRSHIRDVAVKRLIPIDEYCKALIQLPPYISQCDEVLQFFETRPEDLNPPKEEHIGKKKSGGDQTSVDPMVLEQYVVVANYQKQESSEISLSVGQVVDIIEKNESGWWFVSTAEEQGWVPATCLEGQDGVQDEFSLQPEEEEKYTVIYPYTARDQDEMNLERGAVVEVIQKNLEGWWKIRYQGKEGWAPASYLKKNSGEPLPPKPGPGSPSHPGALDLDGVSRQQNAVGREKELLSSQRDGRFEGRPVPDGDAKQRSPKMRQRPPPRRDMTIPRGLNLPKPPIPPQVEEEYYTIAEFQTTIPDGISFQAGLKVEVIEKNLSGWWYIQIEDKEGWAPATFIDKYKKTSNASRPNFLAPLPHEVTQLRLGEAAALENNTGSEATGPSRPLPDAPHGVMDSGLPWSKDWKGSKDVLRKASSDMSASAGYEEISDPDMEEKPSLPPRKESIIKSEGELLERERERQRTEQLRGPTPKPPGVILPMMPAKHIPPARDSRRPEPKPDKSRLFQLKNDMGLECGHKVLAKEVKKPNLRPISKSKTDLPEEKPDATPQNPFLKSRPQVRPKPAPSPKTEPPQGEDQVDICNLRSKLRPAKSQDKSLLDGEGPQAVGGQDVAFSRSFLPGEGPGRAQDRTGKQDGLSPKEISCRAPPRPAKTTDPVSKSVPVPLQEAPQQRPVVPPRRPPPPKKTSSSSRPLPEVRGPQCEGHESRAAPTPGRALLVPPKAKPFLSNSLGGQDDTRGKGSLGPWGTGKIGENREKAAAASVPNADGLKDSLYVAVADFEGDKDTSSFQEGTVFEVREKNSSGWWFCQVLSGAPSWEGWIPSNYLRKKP

Target: T1, Cytoplasmic domain of mouse β-dystroglycan (recombinant) (mouse) (UniProt Q62165)
T1 sequence: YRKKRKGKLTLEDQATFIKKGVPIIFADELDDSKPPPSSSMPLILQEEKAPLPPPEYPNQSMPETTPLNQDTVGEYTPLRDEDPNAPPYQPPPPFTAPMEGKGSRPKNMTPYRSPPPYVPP
Experiment: phage display selection; recombinant β-DG adhered to 6-well plastic plates (1 µg/ml in PBS, overnight at 4°C), blocked with 5% milk in PBS/0.05% Tween 20; 10^10 pfu of human SH3 phage library (n = 296) per well, 2 hours; second selection with a secondary library; clones identified by sequencing; only the target purified

Third SH3 domain of Tks4 displayed on phage (from UniProt A1X283) (domain or fragment)
binding: binds
